Some results were stated once for a whole list of compounds, not compound by compound.
Test system: Litomosoides sigmodontis third-stage larvae
Details: reduction of motility vs negative control after 72 h of incubation

| SMILES | EC50 |
| --- | --- |
| CN(C)c1c(C(=O)N[C@H]2CCOc3ccccc32)cnc2c(C3CCCCCC3)cccc12 [Example 15, (S)—N-(Chroman-4-yl)-8-cycloheptyl-4-(dimethylamino)quinoline-3-carboxamide] | < 0.1 ppm |
| CC(C)CC(C)c1cccc2c(N3CCOCC3)c(C(=O)N[C@H]3CCOc4ccccc43)cnc12 (stereo partly drawn) [Example 22, N-[(4S)-3,4-dihydro-2H-chromen-4-yl]-8-(4-methylpentan-2-yl)-4-(morpholin-4-yl)quinoline-3-carboxamide] | < 0.1 ppm |
| O=C(N[C@H]1CCc2ccccc21)c1cnc2c(N3CCC(F)(F)CC3)c(F)ccc2c1N1CCOCC1 [Example 40, 8-(4,4-difluoropiperidin-1-yl)-N-[(1S)-2,3-dihydro-1H-inden-1-yl]-7-fluoro-4-(morpholin-4-yl)quinoline-3-carboxamide] | < 0.1 ppm |
| CC1CC(C)CN(c2c(F)ccc3c(N4CCOCC4)c(C(=O)N[C@H]4CCc5ccccc54)cnc23)C1 (stereo partly drawn) [Example 49, N-[(1S)-2,3-dihydro-1H-inden-1-yl]-8-(3,5-dimethylpiperidin-1-yl)-7-fluoro-4-(morpholin-4-yl)quinoline-3-carboxamide] | < 0.1 ppm |

— patent publication US11254661B2, “Quinoline derivatives for treating infections with helminths” (Bayer Animal Health GMBH, priority 2017, dated 2022)
